These are yes or no findings as the source states them, for the method shown. Binding seen in cells or lysates may run through a third protein. A yes stands for co-enrichment or nearness to the bait. Other partners may have been found.
Target: GFP-MHZ9 (rice)
Assay: affinity purification with mass spectrometry; GFP-Trap_A immunoprecipitation from 2-day-old etiolated 35S::GFP-MHZ9 transgenic rice seedlings treated with 10 μL/L ethylene for 8 h (n = 1); wild-type seedlings as negative control; LC-MS/MS

B1: OsEIN2 (protein, UniProt Q0D8I9 1-1281)
chain: MDGQQLRSSESPASGGGGVTGGGAPHLFHALGPALLISIGYIDLGKWVAAVEAGSRFGLDLVLLALLFNFMAILCQYLAACIGTVTGRSLAEICHQEYSRPTCIFLGVQAGLSLLTSELTMIFGIALGFNLLFEYDDLITGICFATVVPNLLPYAISHLGKKMVGTLNACIAGFALLCYVLGLLVSQPQIPLTTNVIFPKLSGESAYSLMALLGANVMAHNFYIHSSVVQGQKRSAFAVGALFHDHLFSVLFIFTGIFLVNHVLMNSAAADSTNTLLLTFQDVVELMNQIFVNPMAPTIFLVVLLFSSHIISLTSAIGSQVISQHLFGINLPLSGHHLILKAFAIVPALYCAKVAGAEGIYQLLIICQIIQAMLLPSSVVPLFRVASSRLIMGAHRVSLHLEILTFLAFLLMLFSNIIFMAEMLFGDSGWLNTLKGNTGSPVVFPSTVLITVACVSVAFSLYMAVTPLKSGSHEAELQQEWSVPSQKELLNTTQDREETCAGNVTYEEDQRSDVVPSPRIQPVDCLKSALDYIDSSDTAIESDHDSQHSTAHTSTAPESCHSPSFIPEESKSVVAVDWPEPLEPISNAIVAEESTVESVDSKSTGERDIEVEPALLMDNDKEAPNILESDNKPLGGNNPSCASDDGPPSLTFSRGKGSDAGNGSGSLSRLSGLGRAARRQLAAILDEFWGHLFDYHGKLTQEASSKRFDILLGLDVRTPSSTVRADSQANEIPKSPMVRDNLQGSAFLGSSRDLMSTKNEMSNLDLTYGLQMGNNIGSSAWSQGMQLPSTQLQSSSNSLLDQGARLNSNFSTPSYADNNQFYQPATIHGYQLASYLKQMNANRNPYSSMPLDPQRLPKSSASAVPTYVDSVMHARNQNLLASLGATPSQIAATSRIGTMMAERSYYVPSTLDGNENAGSSAYSKKYHSSPDISALIAASRSALLNESKLGGGTIGSQSYLSRLASERSQYTNSVARPAAPLAFDELSPPKLPGDIFSMQQSPNPSARSLWAKQPFEQLFGVSSAELTKSEFNPAGRSGGMTKDDFSYKESEAKLLQSLRFCISKLLKLEGSGWLFKQNGGSDEDLIDQVAAVEKLLQQGTSDNQLLLGDTQQPPCDKADIQYMRVLPNCGDDCIWRASLVVSFGVWCIRRVLDLSLVESRPELWGKYTYVLNRLQGILDPAFSKPRSALSACACLHRDIRVLNSLRHSSLVATNSIPRQIRGSFTTASVVLEMIKDVETAVSGRKGRSGTAAGDVAFPKGKENLASVLKRYKRRLSSKGQQ
For B1, the binding was “binds”.

Source: article PMC10403538
